# Assay results taken from patent publication US20180104224A1, “PHARMACEUTICAL COMPOSITIONS COMPRISING ANTIBACTERIAL AGENTS” (priority 2014, published 2018).
# For at least one compound, name, drawing or mass did not settle the structure.
# Legend:
# Assay type in all cases: cell-based
# [1] = tested on: highly resistant strains of Pseudomonas aeruginosa; assay: MIC determination, all strains; conditions: highly resistant strains of P. aeruginosa
# Procedure: The antibacterial activity of combinations according to the invention against resistant bacterial strains was investigated. Minimum Inhibitory Concentration (MIC) determination for the combinations according to invention was carried out in Muller Hinton Agar (MHA) (BD, USA) according to Clinical and Laboratory Standards Institute (CLSI) recommendations, (Clinical and Laboratory Standards Institute (CLSI), Performance Standards for Antimicrobial Susceptibility Testing, 20th Informational Supplement, M 100-S20, Volume 30, No. 1, 2010). In short, the test strains were adjusted to deliver about 10^4 CFU per spot with a multipoint inoculator (Applied Quality Services, UK). The plates were pored with MHA containing doubling concentration range of the test combinations according to invention. The plates were inoculated and were incubated at 35° C. for 18 hours.
# The results on antibacterial activity of a carbapenem antibacterial agent selected from imipenem, meropenem, ertapenem and doripenem alone and in combination with Compound A or Compound B, against highly resistant strains of Pseudomonas aeruginosa are given in Table 1. […]
# [2] = tested on: Pseudomonas aeruginosa 1405; assay: Time kill study; conditions: P. aeruginosa 1405; when used alone
# Procedure: (§1) The synergistic killing effect of the combinations according to invention was studied by performing time kill studies. In a typical time kill study, the freshly grown cultures were diluted to the required cell density (initial starting inoculum) in Cation adjusted Muller Hinton broth medium (BD, USA). The antibacterial agents (either alone or in combination) at the required concentrations were added into the culture-containing medium. The samples were incubated under shaking condition (120 rpm) at 37° C. Enumeration of viable bacterial count was done every 2 hour by diluting in normal saline and plating on to the Tryptic Soya Agar plates (BD, USA). The plates were incubated for 24 hours to arrive at the viable bacterial count. The results are expressed in terms of Log10 CFU per ml. In general, the decrease of 1 Log10 CFU/ml, corresponds to 90% killing of bacteria.
# [3] = tested on: Pseudomonas aeruginosa R70; assay: Time kill study; conditions: P. aeruginosa R70; when used alone
# Procedure: as §1
structure (smiles),measurement,setting,value
"C[C@@H](O)[C@H]1C(=O)N2C(C(=O)O)=C(SCCN=CN)C[C@H]12 [Imipenem, imipenem]",MIC values (in words),[1]; in presence of Compound A or Compound B,decreased significantly
same,MIC values (in words),[1]; when used alone,higher MIC values
same,effect on bacterial counts through out the duration of the study (in words),[2],failed to reduce the bacterial counts
same,effect on bacterial counts through out the duration of the study (in words),[3],failed to reduce the bacterial counts
